No constants are given. Whether binding was seen depends on the method and setting. For some assays here: Binding seen in cells or lysates may run through a third protein. Some results given as binding are weak or reduced against the parent protein; the word gives no strength. For some assays here: Where a sequence is shown, tags or fusion partners need not be part of it.

Sequences of proteins named here, by UniProt entry; tags and fusion partners are left off.
UniProt Q8WVT3: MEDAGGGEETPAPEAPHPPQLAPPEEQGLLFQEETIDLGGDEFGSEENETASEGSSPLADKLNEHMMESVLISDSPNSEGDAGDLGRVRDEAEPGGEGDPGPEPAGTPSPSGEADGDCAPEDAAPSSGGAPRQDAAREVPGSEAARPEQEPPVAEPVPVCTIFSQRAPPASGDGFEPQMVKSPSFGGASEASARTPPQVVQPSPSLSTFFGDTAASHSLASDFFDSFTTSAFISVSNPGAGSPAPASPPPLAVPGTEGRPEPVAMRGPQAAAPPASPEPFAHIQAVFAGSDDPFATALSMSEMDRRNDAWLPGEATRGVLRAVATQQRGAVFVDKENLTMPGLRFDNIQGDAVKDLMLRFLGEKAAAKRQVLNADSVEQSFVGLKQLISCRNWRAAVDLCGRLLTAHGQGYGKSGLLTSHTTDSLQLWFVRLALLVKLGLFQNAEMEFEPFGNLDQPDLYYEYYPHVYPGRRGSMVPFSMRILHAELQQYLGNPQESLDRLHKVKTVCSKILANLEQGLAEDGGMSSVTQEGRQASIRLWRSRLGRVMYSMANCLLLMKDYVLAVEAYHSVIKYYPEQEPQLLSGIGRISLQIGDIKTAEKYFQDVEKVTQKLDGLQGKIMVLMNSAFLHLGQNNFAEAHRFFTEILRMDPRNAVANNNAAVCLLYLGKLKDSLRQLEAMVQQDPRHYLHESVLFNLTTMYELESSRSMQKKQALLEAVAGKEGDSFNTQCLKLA
UniProt Q9Y2L5: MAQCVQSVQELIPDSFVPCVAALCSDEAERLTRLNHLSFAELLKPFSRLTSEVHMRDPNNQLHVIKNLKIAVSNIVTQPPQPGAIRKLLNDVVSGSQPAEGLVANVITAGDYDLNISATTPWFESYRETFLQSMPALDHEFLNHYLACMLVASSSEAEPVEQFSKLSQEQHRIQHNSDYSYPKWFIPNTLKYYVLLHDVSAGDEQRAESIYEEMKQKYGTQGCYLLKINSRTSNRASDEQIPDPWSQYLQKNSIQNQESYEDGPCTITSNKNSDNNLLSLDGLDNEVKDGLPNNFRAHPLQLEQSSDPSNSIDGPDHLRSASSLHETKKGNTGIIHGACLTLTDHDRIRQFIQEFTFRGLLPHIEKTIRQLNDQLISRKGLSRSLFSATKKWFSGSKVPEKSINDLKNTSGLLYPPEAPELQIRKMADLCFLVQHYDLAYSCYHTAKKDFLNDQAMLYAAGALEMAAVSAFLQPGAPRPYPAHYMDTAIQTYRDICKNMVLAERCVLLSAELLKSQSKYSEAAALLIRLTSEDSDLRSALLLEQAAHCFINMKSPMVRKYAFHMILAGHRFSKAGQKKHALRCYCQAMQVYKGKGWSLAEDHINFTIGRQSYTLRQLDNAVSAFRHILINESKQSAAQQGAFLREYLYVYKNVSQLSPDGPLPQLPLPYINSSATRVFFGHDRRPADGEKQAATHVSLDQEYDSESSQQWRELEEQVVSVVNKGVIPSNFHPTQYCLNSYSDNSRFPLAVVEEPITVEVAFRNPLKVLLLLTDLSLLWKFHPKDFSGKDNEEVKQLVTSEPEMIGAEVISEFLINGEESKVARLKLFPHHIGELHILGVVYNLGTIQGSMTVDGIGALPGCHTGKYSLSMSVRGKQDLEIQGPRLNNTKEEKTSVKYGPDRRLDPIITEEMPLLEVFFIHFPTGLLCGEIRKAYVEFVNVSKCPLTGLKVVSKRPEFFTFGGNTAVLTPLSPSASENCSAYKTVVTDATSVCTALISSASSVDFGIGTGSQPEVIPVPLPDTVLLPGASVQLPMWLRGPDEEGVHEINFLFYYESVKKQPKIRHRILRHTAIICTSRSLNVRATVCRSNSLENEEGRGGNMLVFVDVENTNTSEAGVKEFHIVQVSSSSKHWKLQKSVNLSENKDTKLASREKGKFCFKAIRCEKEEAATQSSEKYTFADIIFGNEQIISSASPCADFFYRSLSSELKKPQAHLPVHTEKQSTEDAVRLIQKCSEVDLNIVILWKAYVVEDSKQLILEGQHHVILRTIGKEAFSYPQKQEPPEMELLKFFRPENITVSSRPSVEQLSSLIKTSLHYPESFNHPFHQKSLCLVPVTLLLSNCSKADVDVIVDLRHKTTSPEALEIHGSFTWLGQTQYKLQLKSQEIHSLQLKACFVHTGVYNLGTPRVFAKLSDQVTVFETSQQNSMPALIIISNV
UniProt Q9H0U4: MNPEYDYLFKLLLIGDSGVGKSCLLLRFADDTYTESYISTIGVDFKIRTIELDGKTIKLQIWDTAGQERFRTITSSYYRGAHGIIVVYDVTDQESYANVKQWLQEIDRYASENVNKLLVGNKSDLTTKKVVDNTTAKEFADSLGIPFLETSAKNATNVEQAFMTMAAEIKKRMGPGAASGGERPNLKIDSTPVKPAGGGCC
UniProt Q9Y296: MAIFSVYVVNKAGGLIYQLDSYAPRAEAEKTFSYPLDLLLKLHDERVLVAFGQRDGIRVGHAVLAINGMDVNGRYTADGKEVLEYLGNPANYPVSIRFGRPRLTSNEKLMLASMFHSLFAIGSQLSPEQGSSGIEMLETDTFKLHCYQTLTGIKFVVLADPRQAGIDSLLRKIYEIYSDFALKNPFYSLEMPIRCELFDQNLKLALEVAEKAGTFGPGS

Consider 3 substances from paper PMC4741301.

In one assay the target is T1, GFP‐Golgin‐84 (UniProt Q8TBA6).
T1 sequence: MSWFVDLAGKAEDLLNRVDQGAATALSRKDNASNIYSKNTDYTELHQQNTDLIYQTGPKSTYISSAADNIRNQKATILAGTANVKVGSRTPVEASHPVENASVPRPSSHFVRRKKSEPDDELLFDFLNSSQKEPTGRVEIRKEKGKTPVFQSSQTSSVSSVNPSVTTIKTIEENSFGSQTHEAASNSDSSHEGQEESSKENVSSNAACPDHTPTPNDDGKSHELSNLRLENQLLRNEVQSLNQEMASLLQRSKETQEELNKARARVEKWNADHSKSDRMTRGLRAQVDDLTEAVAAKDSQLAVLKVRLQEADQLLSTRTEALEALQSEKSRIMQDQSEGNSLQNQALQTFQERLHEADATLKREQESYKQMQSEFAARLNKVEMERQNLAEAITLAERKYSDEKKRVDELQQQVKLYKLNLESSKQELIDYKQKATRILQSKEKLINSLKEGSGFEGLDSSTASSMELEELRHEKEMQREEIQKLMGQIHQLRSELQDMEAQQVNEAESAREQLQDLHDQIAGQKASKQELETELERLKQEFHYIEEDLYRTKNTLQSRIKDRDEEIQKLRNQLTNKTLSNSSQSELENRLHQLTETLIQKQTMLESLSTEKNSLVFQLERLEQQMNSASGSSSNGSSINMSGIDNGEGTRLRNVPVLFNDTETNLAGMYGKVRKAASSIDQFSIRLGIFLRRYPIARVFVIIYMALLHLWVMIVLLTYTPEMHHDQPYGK
Briefly: co-IP; GFP‐Trap IP from lysates of HEK293A cells expressing GFP‐Golgin‐84, with myc‐TBC1D14 or empty vector, or with RISC‐free, TBC1D14, TRAPPC8 or RAB1B siRNA; immunoblot for RAB1B.

Assay [1] has as its target TRAPPC12/TTC15 (human (endogenous in HEK293A)) (UniProt Q8WVT3). Nature of the assay: SEC; size exclusion chromatography of endogenous proteins, fractions immunoblotted; complex of approximately 600 kDa.
The target is the same in assay [2]. Briefly: co-IP; HEK293A cells lysed in 400 µl TNTE; IP with mouse anti‐TRAPPC12/TTC15 or mouse anti‐GFP (control) bound to protein G‐Sepharose; immunoblot for TRAPPC8 and TRAPPC12.
Assay [3] concerns the target TRAPPC8 (human (endogenous in HEK293A)) (UniProt Q9Y2L5). Briefly: SEC; size exclusion chromatography of endogenous proteins, fractions immunoblotted; complex of approximately 600 kDa.

As to “endogenous RAB1B (from UniProt Q9H0U4 1-201)”, the binding entry in the assay with GFP‐Golgin‐84 was “binds”.

Turning to TRAPPC8 (from UniProt Q9Y2L5 1-1435), the binding entry in assay [1] and in assay [2] was “binds” throughout. As for TRAPPC4 (from UniProt Q9Y296 1-219), the binding result in assay [1] and in assay [3] was “binds” throughout.
